Source: PubChem BioAssay AID588590 (National Center for Advancing Translational Sciences (NCATS), 2011)
Screen size: about 390,000 compounds; about 4,000 (1%) were called active. The inconclusive results got no clear call from the source; some entries with a clear call stand among them for comparison. Calls come from the whole dose curve; as a rule, active = well fitted inhibition curve with a large enough effect; inconclusive = small, poorly fitted or top-dose-only effect, or another doubt; inactive = no such curve, though single readings can be large or run the other way. Where the call is inconclusive, the potency comes from a doubtful curve fit.

Protein sequences, listed by entry. Tags and fused reporters are not part of them. Lines headed by an entry give the natural chain unless they say otherwise; changes in a name come on top.
UniProt Q9UNA4: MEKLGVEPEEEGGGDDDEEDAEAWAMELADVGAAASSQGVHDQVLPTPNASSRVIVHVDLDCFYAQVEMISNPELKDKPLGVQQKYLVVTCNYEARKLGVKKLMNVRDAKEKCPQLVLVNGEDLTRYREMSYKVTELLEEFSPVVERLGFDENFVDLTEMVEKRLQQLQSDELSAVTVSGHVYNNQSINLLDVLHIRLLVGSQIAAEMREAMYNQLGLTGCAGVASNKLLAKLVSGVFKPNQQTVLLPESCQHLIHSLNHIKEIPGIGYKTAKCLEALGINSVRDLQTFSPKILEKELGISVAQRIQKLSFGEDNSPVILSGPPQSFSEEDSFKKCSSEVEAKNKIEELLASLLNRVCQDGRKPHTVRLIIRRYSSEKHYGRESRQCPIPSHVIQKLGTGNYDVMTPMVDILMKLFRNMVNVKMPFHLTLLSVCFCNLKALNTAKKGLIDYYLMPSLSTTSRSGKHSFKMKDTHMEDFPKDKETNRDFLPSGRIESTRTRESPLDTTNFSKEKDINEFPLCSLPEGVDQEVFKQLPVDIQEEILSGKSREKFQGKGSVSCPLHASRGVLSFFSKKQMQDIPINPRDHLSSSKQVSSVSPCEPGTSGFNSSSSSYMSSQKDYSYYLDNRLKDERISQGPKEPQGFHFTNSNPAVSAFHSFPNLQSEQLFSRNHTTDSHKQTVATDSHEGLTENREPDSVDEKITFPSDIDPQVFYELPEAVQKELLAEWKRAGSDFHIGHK

Biological target: DNA polymerase iota (Homo sapiens) (UniProt Q9UNA4)
Assay: qHTS for Inhibitors of Polymerase Iota
Settings: Pol iota fluorescent replication assay, 10 min; series mostly up to 115 µM
Method in brief: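 Pol iota at 10 nM preincubated 15 min with compounds at room temperature; reaction started with fluorescent substrate, 50 nM final. Fluorescence read kinetically at 0 and 10 min; buffer-only wells as negative control.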
Potency is the fitted concentration of half-maximal effect.

Row | SMILES | Potency
1 | Cc1nc2c(ncn2-c2ccccc2)c(=O)n1NC(=O)CN1CCCCC1 | inactive
2 | CCOC(=O)C1=C(C)N=C2c3ccccc3C(=O)C2C1c1ccccc1 (centres undefined) | inconclusive: 39.8 µM [inhibitor, partial curve, poor fit]
3 | Cn1c(SCC(=O)NNC(=O)Cc2ccccc2)nc2ccccc2c1=O | inconclusive: 44.7 µM [inhibitor, partial curve, poor fit]
4 | Cc1ccc2nc(/C(C#N)=C/c3ccc(-c4ccc(C(=O)OC(C)C)cc4)o3)[nH]c2c1 | inactive
5 | CC(=O)OCC[C@H](NS(=O)(=O)OCC(Cl)(Cl)Cl)c1ccccc1 | inconclusive: 89.1 µM [inhibitor, single point]
6 | C/C(=N\NS(=O)(=O)c1ccc(Cl)c([N+](=O)[O-])c1)c1ccc(C)o1 | inconclusive: 20 µM [inhibitor, partial curve, poor fit]
7 | CCCCCCc1cc2cc(-c3nnc(-c4ccccc4OC)o3)c(=O)oc2cc1O | inconclusive: 7.08 µM [inhibitor, full curve, poor fit]
8 | CN(C(=S)Nc1ccc(Oc2ccccc2)cc1)c1ccc(O)cc1 | inconclusive: 3.55 µM [inhibitor, full curve, poor fit]
9 | CCOc1cc(/C=N/NC(=O)c2cccs2)cc([N+](=O)[O-])c1O | inconclusive: 10 µM [inhibitor, partial curve, poor fit]
10 | COCCn1c(C)nc2oc3ccc(Br)cc3c(=O)c2c1=O | inconclusive: 25.1 µM [inhibitor, full curve, poor fit]
11 | Cn1c(SCC(=O)Nc2ccccc2)nc2c([nH]c3ccccc32)c1=O | inconclusive: 39.8 µM [inhibitor, single point]
12 | Cc1ccc(C)c(NC(=O)Cn2c(=O)n(CCCS(=O)(=O)C3CCCCC3)c(=O)c3ccccc32)c1 | inactive
13 | O=C(Cn1c(-c2cccs2)cc2cc(Cl)ccc21)N1CCCCC1 | inactive
14 | COc1ccc(C(=O)C2CCCN(C(=O)c3cccnc3OC)C2)c(C)c1 (centres undefined) | inactive
15 | CC(C)C[C@H](NC(=O)OC(C)(C)C)c1nnc(SCC(=O)Nc2ccc(Br)cc2)o1 | inconclusive: 4.47 µM [inhibitor, full curve, poor fit]
16 | O=S(=O)(N/N=C/c1ccc(Cl)cc1)c1ccc(Cc2ncc(C(F)(F)F)cc2Cl)s1 | inconclusive: 39.8 µM [inhibitor, single point]
17 | O=C(CSc1nc2c(sc3ccccc32)c(=O)n1CCO)NCc1ccco1 | inconclusive: 14.1 µM [inhibitor, partial curve, poor fit]
18 | COc1ccc(S(=O)(=O)N(C)C)cc1NC(=O)c1ccc2c(c1)OCCO2 | inconclusive: 79.4 µM [inhibitor, single point]
19 | CS/C(=C\[N+](=O)[O-])Nc1ccc(Cl)cc1 | inconclusive: 39.8 µM [inhibitor, partial curve, poor fit]
20 | COc1cccc(-c2nn(C)c3sc(C(=O)NCCCN(C)Cc4ccccc4)cc23)c1 | inconclusive: 89.1 µM [inhibitor, single point]
21 | O=C1CN(C(=O)COC(=O)CCS(=O)(=O)c2ccccc2Cl)c2ccccc2N1 | inconclusive: 63.1 µM [inhibitor, single point]
22 | CC(C)c1ccc(C(=O)CC2(O)C(=O)N(CCc3ccccc3)c3ccc(Cl)cc32)cc1 (centres undefined) | inactive

Row | SMILES | Potency
23 | O=c1[nH]c(NCCO)c(N=Cc2ccccc2)c(=O)[nH]1 | inconclusive: 31.6 µM [inhibitor, single point]
24 | O=C(c1c[nH]c2ccc(S(=O)(=O)Nc3ccccc3F)cc2c1=O)N1CCCCCC1 | inconclusive: 56.2 µM [inhibitor, partial curve, poor fit]
25 | CNC(=O)C1CCC(Cn2c(=O)c3sccc3n(CC(=O)Nc3cc(C)cc(C)c3)c2=O)CC1 (centres undefined) | inactive
26 | COc1ccc(NS(=O)(=O)c2ccc(O)c(NC(=O)c3ccc(S(=O)(=O)N4CCCCCC4)cc3)c2)cc1 | inconclusive: 56.2 µM [inhibitor, partial curve, poor fit]
27 | COc1ccc(-c2csc(NC(=O)CCn3cnc4ccccc4c3=O)n2)cc1OC | inconclusive: 79.4 µM [inhibitor, partial curve, poor fit]
28 | COc1cc(CC(=O)OCC(=O)Nc2ccccc2C#N)cc(OC)c1OC | inactive
29 | CC(C)n1cc(C(=O)NC2CC(C)(C)Cc3c2cnn3-c2ccccc2)cn1 (centres undefined) | inconclusive: 100 µM [inhibitor, partial curve, poor fit]
30 | CC(C)(C)/C(O)=C(/C#N)c1nc2ccccc2[nH]1 | inconclusive: 7.94 µM [inhibitor, partial curve]
31 | O=C1c2ccccc2C(O)(c2ncc[nH]2)N1CCc1ccccc1 (centres undefined) | inconclusive: 112 µM [inhibitor, single point]
32 | Cc1cc2c(c(=O)o1)C(Cc1ccccc1)C(C#N)=C(N)O2 (centres undefined) | inconclusive: 39.8 µM [inhibitor, single point]
33 | CC(=O)Nc1ccc(S(=O)(=O)N2CCN(c3ccc(C)c(C)c3)CC2)cc1 | inconclusive: 89.1 µM [inhibitor, single point]
34 | CCC(OC(=O)c1cccs1)C(=O)NCc1ccco1 (centres undefined) | inconclusive: 7.08 µM [inhibitor, partial curve, poor fit]
35 | CC#CCN1c2ccccc2[C@]23C[C@@H](C(=O)OC)N(C(=O)c4ccco4)C2=NC(C(=O)OC)=C(C(=O)OC)[C@H]13 | inconclusive: 44.7 µM [inhibitor, partial curve, poor fit]
36 | Cc1cc(OCC(=O)Nc2ccc(C(=O)OC3CCCCC3)cc2)ccc1Cl | inactive
37 | Cc1cccc(NC(=O)Nc2ccc(C)c(C)c2)n1 | inconclusive: 50.1 µM [inhibitor, partial curve, poor fit]
38 | Cc1cc(C(=O)CCl)c(C)n1-c1cccc([N+](=O)[O-])c1 | inconclusive: 35.5 µM [inhibitor, partial curve, poor fit]
39 | O=c1cc(-c2ccc(O)cc2)oc2ccc3ccccc3c12 | active: 39.8 µM
40 | O=C(CSc1nccn1-c1ccccc1)c1ccc(Br)cc1 | inconclusive: 3.98 µM [inhibitor, partial curve, poor fit]
41 | Oc1c(/C=C/C=C/C=Nc2ccccc2)sc(=S)n1Cc1ccccc1 | active: 25.1 µM
42 | O=C(Nc1nc(-c2cc3ccccc3oc2=O)cs1)c1ccco1 | inactive
43 | CCOC(=O)[C@H]1[C@H]2COc3ccccc3[C@@H]2N2C(=O)c3cc(OC)ccc3NC(=O)[C@@]12C | inconclusive: 11.2 µM [inhibitor, partial curve, poor fit]
44 | O=C1c2cccc3c(Cl)ccc(c23)C(=O)N1O | inconclusive: 100 µM [inhibitor, single point]

A second format for part of the listing above.
COc1cccc(-c2nn(C)c3sc(C(=O)NCCCN(C)Cc4ccccc4)cc23)c1
  Potency: inconclusive: 89.1 µM [inhibitor, single point]
O=C1CN(C(=O)COC(=O)CCS(=O)(=O)c2ccccc2Cl)c2ccccc2N1
  Potency: inconclusive: 63.1 µM [inhibitor, single point]

(further entries)

Row | SMILES | Potency
45 | COCCNC(=O)COc1cccc(Oc2ccccc2)c1 | inconclusive: 89.1 µM [inhibitor, partial curve, poor fit]
46 | CCc1ccccc1N(CC(=O)NCCSCc1ccco1)S(C)(=O)=O | inconclusive: 89.1 µM [inhibitor, partial curve, poor fit]
47 | COc1cccc(-n2nnc3c(=O)n(CC(=O)N4CCC(C)CC4)cnc32)c1 | inactive
48 | CCOc1ccc2[nH]c3c(NCCC(C)C)ncnc3c2c1 | inactive
49 | Cc1nnc(SCC(=O)Nc2sc3c(c2C#N)CCCCC3)n1N | inconclusive: 39.8 µM [inhibitor, single point]
50 | COCCNC(=S)Nc1ccc2nsnc2c1 | active: 20 µM
51 | COc1ccc(C(=O)Nc2ccc(S(=O)(=O)NCc3ccco3)cc2)cc1OC | inconclusive: 20 µM [inhibitor, full curve, poor fit]
52 | CSc1ncc2c(=O)[nH]c(-c3ccccc3)nc2n1 | inconclusive: 89.1 µM [inhibitor, partial curve, poor fit]
53 | Cc1cccc(N2CCN(C(=O)C(C)C)CC2)c1C | inconclusive: 31.6 µM [inhibitor, single point]
54 | CNc1[nH]c(=O)[nH]c(=O)c1N=Nc1cc(Cl)ccc1Cl | inconclusive: 1.78 µM [inhibitor, full curve, poor fit]
55 | O=S(=O)(NCCc1csc2nc(-c3ccccc3)nn12)c1ccc(Oc2ccccc2)cc1 | inactive
56 | CC(C)C1(C)NC(c2ccc3c(c2)OCO3)=CC(c2ccccc2O)N1 (centres undefined) | inconclusive: 39.8 µM [inhibitor, partial curve, poor fit]
57 | CCN(CC)c1ccc(NC(=O)CCc2c(C)nc3ncnn3c2C)c(C)c1 | inactive
58 | Oc1ccc(-c2cn3c(n2)SCC3)cc1O | active: 2.51 µM
59 | COc1ccc(Cl)cc1NC(=O)Cn1nnc2sc(-c3ccccc3)cc2c1=O | inactive
60 | CCOC(=O)c1ccc(N2N=C(C)/C(=C/C=C/c3ccco3)C2=O)cc1 | inconclusive: 10 µM [inhibitor, full curve, poor fit]
61 | COc1ccc2c(c1)cc1n2CCN=C1NN | inconclusive: 17.8 µM [inhibitor, partial curve, poor fit]
62 | O=C(c1cn(-c2ccccc2)nc1-c1cccs1)N1CCN(c2ccccc2)CC1 | inconclusive: 10 µM [inhibitor, partial curve, poor fit]
63 | COc1ccc(CCNC(=O)CSc2nnc(CNC(=O)c3cccs3)o2)cc1OC | inconclusive: 31.6 µM [inhibitor, partial curve, poor fit]
64 | CCOC(=O)c1cc2c(=O)n3ccccc3nc2n(Cc2ccco2)c1=NC(=O)c1cccc(Br)c1 | active: 39.8 µM
